{
  "source": "paper PMC12021911",
  "about": "(Frontiers in Microbiology, 2025)",
  "assay": "general procedure: Fmoc solid-phase peptide synthesis; Fmoc-Rink amide AM resin (100–200 mesh, loading capacity 0.62 mmol/g); DIC/HOBT (8 eq.) in DMF",
  "settings": "whole synthesis",
  "data": [
    {"substance": "VDKPPYLPRPRPPROIYNO-NH2", "values": [
      {"measurement": "purity (crude or final not stated)", "result": 95, "unit": "%"}
    ]},
    {"substance": "KRFRIRVRV-NH2", "values": [
      {"measurement": "purity (crude or final not stated)", "result": 99, "unit": "%"}
    ]},
    {"substance": "VDKPPYLPRPRPPRrIYNr-NH2", "values": [
      {"measurement": "purity (crude or final not stated)", "result": 87, "unit": "%"}
    ]},
    {"substance": "VRLIVAVRIWRR-NH2", "values": [
      {"measurement": "purity (crude or final not stated)", "result": 94, "unit": "%"}
    ]}
  ]
}
